Assay results from the supplement of paper PMC10849652.
Some of the results follow.

Chains of the proteins cited; added tags and fusions are not shown. Lines headed by an entry give the natural chain unless they say otherwise; changes in a name come on top.
UniProt Q9HB90, whole entry, looked up: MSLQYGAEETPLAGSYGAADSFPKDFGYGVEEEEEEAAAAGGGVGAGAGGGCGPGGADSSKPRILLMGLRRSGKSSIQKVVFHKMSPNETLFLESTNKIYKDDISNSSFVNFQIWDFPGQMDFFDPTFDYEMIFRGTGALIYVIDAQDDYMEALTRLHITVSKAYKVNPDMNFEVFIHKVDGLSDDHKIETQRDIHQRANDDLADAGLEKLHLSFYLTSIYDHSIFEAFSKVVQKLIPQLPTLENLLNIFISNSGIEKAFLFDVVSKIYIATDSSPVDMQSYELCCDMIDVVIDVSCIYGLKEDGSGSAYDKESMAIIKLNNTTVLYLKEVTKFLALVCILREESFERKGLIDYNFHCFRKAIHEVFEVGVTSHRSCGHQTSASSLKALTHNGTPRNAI
UniProt P23443: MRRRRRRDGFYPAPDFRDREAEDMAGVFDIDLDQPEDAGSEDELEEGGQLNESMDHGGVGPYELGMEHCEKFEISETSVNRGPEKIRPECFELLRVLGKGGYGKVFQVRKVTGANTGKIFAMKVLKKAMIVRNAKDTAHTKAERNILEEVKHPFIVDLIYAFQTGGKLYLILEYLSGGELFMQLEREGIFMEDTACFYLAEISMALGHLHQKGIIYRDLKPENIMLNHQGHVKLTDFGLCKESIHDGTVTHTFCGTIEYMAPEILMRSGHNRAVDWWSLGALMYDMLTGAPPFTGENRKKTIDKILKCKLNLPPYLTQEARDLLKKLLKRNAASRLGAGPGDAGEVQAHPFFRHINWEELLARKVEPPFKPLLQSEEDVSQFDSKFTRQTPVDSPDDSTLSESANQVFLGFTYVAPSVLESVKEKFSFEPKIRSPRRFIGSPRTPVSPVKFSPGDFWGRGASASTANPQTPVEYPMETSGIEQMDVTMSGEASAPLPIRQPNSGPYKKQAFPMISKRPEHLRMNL
UniProt O43159: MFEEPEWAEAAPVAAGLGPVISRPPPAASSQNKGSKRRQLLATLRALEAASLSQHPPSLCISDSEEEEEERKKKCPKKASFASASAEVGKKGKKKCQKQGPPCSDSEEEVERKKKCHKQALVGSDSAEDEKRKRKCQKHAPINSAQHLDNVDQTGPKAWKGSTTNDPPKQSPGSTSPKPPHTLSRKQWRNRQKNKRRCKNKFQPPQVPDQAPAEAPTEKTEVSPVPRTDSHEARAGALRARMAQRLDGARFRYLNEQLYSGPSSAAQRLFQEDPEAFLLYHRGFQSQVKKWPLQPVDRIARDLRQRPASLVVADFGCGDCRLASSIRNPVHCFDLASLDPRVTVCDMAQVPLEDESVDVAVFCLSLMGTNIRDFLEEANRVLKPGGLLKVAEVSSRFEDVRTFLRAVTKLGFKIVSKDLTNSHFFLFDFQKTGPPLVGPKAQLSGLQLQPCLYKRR
UniProt Q8N5L8: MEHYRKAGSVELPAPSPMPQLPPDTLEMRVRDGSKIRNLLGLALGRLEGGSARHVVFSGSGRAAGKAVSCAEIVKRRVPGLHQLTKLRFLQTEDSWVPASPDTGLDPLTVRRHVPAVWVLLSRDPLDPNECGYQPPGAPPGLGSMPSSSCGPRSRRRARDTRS
UniProt Q7L523, whole entry, looked up: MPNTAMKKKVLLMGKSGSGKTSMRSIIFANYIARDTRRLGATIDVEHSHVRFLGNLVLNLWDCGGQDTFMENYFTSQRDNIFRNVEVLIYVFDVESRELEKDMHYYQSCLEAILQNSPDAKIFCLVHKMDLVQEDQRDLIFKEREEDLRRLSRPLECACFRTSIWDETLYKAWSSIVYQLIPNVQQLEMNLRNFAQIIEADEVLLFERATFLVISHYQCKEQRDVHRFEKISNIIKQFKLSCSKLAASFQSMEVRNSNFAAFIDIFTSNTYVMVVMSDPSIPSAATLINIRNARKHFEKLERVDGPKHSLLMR
UniProt Q92622: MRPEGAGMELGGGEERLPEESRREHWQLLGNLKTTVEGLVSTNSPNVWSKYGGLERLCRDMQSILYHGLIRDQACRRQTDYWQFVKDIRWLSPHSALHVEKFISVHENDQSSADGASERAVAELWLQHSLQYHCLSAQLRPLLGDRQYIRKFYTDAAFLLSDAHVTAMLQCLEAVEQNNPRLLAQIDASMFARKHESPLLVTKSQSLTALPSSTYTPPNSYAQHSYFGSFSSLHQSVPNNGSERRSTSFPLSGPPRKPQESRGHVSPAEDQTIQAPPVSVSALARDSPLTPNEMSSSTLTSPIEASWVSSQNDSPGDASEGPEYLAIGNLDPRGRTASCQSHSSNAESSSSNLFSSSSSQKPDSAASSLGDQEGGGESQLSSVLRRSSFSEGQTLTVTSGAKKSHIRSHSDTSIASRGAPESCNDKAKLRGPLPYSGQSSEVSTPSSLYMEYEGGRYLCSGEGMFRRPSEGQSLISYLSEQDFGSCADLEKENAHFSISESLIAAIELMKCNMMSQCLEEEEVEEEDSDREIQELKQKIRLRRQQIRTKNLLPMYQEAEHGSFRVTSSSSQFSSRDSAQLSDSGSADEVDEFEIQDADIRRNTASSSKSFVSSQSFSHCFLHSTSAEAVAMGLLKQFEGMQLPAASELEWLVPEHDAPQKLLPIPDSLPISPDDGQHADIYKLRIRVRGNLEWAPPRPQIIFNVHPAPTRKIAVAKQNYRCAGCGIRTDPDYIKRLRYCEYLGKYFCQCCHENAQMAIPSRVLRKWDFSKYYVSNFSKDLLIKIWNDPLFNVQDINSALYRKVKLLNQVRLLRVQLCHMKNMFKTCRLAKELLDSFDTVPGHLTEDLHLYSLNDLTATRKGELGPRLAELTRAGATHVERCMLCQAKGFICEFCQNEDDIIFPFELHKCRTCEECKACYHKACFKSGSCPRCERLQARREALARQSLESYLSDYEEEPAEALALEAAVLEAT
UniProt Q9Y230, whole entry, looked up: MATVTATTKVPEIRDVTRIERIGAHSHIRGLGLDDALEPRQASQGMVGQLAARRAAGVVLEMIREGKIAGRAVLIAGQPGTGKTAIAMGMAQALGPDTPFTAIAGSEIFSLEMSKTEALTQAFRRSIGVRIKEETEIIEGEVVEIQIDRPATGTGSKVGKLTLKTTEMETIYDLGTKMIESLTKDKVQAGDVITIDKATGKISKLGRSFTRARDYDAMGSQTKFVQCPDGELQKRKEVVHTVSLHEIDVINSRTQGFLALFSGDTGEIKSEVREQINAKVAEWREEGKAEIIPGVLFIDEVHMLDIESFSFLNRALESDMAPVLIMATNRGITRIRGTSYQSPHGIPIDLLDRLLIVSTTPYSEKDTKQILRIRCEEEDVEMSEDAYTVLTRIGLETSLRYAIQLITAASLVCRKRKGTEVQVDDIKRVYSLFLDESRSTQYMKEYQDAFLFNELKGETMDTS
UniProt Q9BUL9: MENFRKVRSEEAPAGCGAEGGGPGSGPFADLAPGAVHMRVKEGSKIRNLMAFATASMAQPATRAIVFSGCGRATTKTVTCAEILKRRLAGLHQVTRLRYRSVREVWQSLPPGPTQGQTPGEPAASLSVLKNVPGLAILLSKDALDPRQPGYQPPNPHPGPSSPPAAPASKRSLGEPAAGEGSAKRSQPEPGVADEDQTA
UniProt Q9NQC3: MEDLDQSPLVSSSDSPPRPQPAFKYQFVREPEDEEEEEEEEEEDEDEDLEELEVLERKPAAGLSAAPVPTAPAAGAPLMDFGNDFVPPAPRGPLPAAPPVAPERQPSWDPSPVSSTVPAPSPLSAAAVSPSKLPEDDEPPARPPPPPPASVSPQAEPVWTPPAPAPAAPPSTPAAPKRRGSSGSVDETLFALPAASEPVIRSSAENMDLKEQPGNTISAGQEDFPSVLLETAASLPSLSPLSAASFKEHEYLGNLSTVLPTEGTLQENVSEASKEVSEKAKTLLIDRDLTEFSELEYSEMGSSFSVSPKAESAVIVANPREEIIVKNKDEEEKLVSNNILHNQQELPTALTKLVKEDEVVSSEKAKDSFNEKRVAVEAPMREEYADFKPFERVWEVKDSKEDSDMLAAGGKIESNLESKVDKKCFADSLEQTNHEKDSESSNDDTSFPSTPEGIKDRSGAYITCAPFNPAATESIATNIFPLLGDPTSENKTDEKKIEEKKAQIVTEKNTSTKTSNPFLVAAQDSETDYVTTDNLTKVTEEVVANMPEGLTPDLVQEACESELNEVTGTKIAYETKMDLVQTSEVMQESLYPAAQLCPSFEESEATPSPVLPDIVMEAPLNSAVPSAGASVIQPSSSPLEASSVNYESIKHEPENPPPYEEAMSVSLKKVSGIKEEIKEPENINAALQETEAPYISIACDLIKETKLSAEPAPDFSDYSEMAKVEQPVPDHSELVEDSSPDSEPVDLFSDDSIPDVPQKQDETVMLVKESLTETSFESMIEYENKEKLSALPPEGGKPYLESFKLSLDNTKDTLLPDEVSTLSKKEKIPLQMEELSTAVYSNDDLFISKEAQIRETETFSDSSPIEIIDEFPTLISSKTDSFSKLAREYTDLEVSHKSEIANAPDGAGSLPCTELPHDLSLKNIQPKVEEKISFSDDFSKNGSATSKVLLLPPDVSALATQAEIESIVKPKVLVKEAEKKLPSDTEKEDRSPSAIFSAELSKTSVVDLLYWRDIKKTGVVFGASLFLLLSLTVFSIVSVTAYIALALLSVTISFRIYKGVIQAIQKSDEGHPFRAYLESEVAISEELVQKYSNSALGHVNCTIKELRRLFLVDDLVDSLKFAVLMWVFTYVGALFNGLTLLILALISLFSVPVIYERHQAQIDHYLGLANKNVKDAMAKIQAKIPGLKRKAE
UniProt Q96DX4: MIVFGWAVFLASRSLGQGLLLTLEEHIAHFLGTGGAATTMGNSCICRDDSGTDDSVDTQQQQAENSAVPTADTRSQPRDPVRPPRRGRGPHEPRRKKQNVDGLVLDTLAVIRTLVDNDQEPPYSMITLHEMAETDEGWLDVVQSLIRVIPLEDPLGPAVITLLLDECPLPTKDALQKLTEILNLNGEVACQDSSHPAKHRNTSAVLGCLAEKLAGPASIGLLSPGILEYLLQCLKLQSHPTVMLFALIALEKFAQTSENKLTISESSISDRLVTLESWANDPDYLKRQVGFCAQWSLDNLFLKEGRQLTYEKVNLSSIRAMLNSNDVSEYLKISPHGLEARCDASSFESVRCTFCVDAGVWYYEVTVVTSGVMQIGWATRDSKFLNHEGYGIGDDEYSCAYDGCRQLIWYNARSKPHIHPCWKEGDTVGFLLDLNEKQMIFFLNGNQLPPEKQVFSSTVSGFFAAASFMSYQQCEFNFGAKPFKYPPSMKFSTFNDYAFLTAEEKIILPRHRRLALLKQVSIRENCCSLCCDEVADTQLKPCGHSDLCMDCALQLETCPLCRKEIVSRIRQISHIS
UniProt Q9Y224: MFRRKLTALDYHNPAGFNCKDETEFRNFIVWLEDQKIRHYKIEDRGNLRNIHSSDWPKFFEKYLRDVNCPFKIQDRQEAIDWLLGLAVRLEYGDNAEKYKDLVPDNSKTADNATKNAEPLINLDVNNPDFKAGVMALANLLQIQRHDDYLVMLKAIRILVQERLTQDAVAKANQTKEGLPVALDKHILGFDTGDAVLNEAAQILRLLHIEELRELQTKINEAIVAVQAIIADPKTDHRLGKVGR

Assays:
Test in all cases: log2 fold change, soluble protein after heating vs DMSO (PISA); higher = thermal stabilisation; K562 lysate, 10 uM; active = over 0.2 and 3.5 SD of the protein, either way, in both replicates (recomputed)
vemurafenib = compound: CCCS(=O)(=O)Nc1ccc(F)c(C(=O)c2c[nH]c3ncc(-c4ccc(Cl)cc4)cc23)c1F [vemurafenib]
In short: (§1)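 K562 pellets were dounce-homogenised in PBS pH 7.4 containing 1 mM MgCl2, and the crude extract, at 1 mg/mL protein, was exposed to 10 μM compound for 30 min. Aliquots were heated for 3 min across 48°C-58°C, pooled, brought to 0.5% NP-40 at 4°C and spun at 21,000xg for 90 min, with the supernatant taken as soluble protein. TMTpro 16plex LC-MS/MS with equalised channel sums quantified that protein. Values are log-two fold changes in thermal stability relative to solvent controls, taken from duplicates.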

[1] = compound: CCCS(=O)(=O)Nc1ccc(F)c(C(=O)c2c[nH]c3ncc(Cl)cc23)c1F
In short: as §1

barasertib = compound: CCN(CCCOc1ccc2c(Nc3cc(CC(=O)Nc4cccc(F)c4)[nH]n3)ncnc2c1)CCOP(=O)(O)O [barasertib]
In short: as §1

[2] = compound: CC[C@@H]1C(=O)N(C)c2cnc(Nc3ccc(C(=O)NC4CCN(C)CC4)cc3OC)nc2N1C1CCCC1
In short: as §1

volasertib = compound: CC[C@@H]1C(=O)N(C)c2cnc(Nc3ccc(C(=O)N[C@H]4CC[C@H](N5CCN(CC6CC6)CC5)CC4)cc3OC)nc2N1C(C)C [volasertib]
In short: as §1

[3] = compound: CCn1c(C(=O)N(C2CC2)C2CC2)cc2c3c(ncn3C)c(Nc3cc(C)n(C)n3)nc21
In short: as §1

[4] = compound: CCn1cc(-c2ccnc3[nH]c(-c4cccc(CN(C)C)c4)cc23)c(-c2ccc(NC(=O)N(C)C)cc2)n1
In short: as §1

[5] = compound: CN1CCC(CNc2ccc3ncc(-c4cccc(OC(F)(F)F)c4)n3n2)CC1
In short: as §1

saracatinib = compound: CN1CCN(CCOc2cc(OC3CCOCC3)c3c(Nc4c(Cl)ccc5c4OCO5)ncnc3c2)CC1 [saracatinib]
In short: as §1

sotrastaurin = compound: CN1CCN(c2nc(C3=C(c4c[nH]c5ccccc45)C(=O)NC3=O)c3ccccc3n2)CC1 [sotrastaurin]
In short: as §1

alvocidib = compound: CN1CC[C@H](c2c(O)cc(O)c3c(=O)cc(-c4ccccc4Cl)oc23)[C@H](O)C1 [alvocidib]
In short: as §1

Tubastatin A = compound: CN1CCc2c(c3ccccc3n2Cc2ccc(C(=O)NO)cc2)C1 [Tubastatin A]
In short: as §1

[6] = compound: CNC(=O)C1=CC=CC=C1NC2=NC(=NC=C2Cl)NC3=C(C=C(C=C3)N4CCOCC4)OC
In short: as §1

defactinib = compound: CNC(=O)c1ccc(Nc2ncc(C(F)(F)F)c(NCc3nccnc3N(C)S(C)(=O)=O)n2)cc1 [defactinib]
In short: as §1

[7] = compound: CNc1nc(-c2ccc3c(N)n[nH]c3c2)cc(N2C[C@@H](C(=O)NC3CCCCC3)CC[C@H]2C)n1
In short: as §1

encorafenib = compound: COC(=O)N[C@@H](C)CNc1nccc(-c2cn(C(C)C)nc2-c2cc(Cl)cc(NS(C)(=O)=O)c2F)n1 [encorafenib]
In short: as §1

[8] = compound: COC(=O)[C@H](CCSC)NC(=O)C1=C(C=C(C=C1)NC[C@H](CS)N)C2=CC=CC=C2
In short: as §1

alisertib = compound: COc1cc(Nc2ncc3c(n2)-c2ccc(Cl)cc2C(c2c(F)cccc2OC)=NC3)ccc1C(=O)O [alisertib]
In short: as §1

[9] = compound: COc1cc2nc(-c3cc(F)ccc3O)nc(N[C@@H]3CNC[C@H]3C(C)(C)O)c2cc1OC
In short: as §1

gefitinib = compound: COc1cc2ncnc(Nc3ccc(F)c(Cl)c3)c2cc1OCCCN1CCOCC1 [gefitinib]
In short: as §1

Target | log2 fold change (vemurafenib) | log2 fold change [1] | log2 fold change (barasertib) | log2 fold change [2] | log2 fold change (volasertib) | log2 fold change [3] | log2 fold change [4] | log2 fold change [5] | log2 fold change (saracatinib) | log2 fold change (sotrastaurin) | log2 fold change (alvocidib) | log2 fold change (Tubastatin A) | log2 fold change [6] | log2 fold change (defactinib) | log2 fold change [7] | log2 fold change (encorafenib) | log2 fold change [8] | log2 fold change (alisertib) | log2 fold change [9] | log2 fold change (gefitinib)
RRAGC (UniProt Q9HB90) | inactive: 0.02 | inactive: -0.002 | inactive: 0 | inactive: 0.019 | inactive: -0.001 | inactive: -0.04 | inactive: -0.052 | inactive: 0.115 | inactive: 0.008 | inactive: -0.018 | inactive: 0.003 | inactive: 0.068 | inactive: 0.017 | inactive: -0.014 | inactive: -0.02 | inactive: -0.004 | inactive: -0.028 | inactive: 0.02 | inactive: 0.016 | inactive: 0.028
RPS6KB1 (UniProt P23443) | inactive: -0.052 | inactive: -0.001 | inactive: 0.068 | inactive: -0.109 | inactive: -0.041 | inactive: 0.078 | inactive: -0.155 | inactive: 0.185 | inactive: -0.022 | inactive: 0.074 | inactive: -0.021 | inactive: -0.184 | inactive: 0.115 | inactive: 0.094 | inactive: -0.013 | inactive: -0.039 | inactive: 0.218 | inactive: -0.02 | inactive: 0.166 | inactive: 0.062
RPS26 (UniProt P62854) | inactive: 0.077 | inactive: 0.015 | inactive: -0.084 | inactive: 0.032 | inactive: 0.021 | inactive: -0.072 | inactive: -0.192 | inactive: 0.045 | inactive: 0.032 | inactive: 0.044 | inactive: 0.037 | inactive: 0.056 | inactive: -0.046 | inactive: -0.035 | inactive: 0.04 | inactive: 0.019 | inactive: 0.032 | inactive: 0.075 | inactive: -0.039 | inactive: -0.039
RRP8 (UniProt O43159) | inactive: -0.016 | inactive: -0.001 | inactive: 0.002 | inactive: 0.072 | inactive: -0.071 | inactive: 0.002 | inactive: -0.038 | inactive: 0.147 | inactive: 0.012 | inactive: -0.025 | inactive: 0.055 | inactive: -0.072 | inactive: -0.045 | inactive: -0.062 | inactive: 0.035 | inactive: 0.092 | inactive: 0.101 | inactive: -0.011 | inactive: -0.026 | inactive: -0.031
RPP25L (UniProt Q8N5L8) | inactive: 0.02 | inactive: 0.009 | inactive: 0.034 | inactive: 0.112 | inactive: 0.025 | inactive: 0.028 | inactive: -0.048 | inactive: 0.038 | inactive: 0.009 | inactive: -0.039 | inactive: -0.006 | inactive: 0.006 | inactive: -0.052 | inactive: 0.08 | inactive: -0.015 | inactive: 0.031 | inactive: 0.031 | inactive: 0.032 | inactive: -0.005 | inactive: -0.009
RRAGA (UniProt Q7L523) | inactive: 0.111 | inactive: 0.092 | inactive: -0.004 | inactive: 0.014 | inactive: 0.042 | inactive: 0.139 | inactive: -0.011 | inactive: 0.051 | inactive: 0.081 | inactive: -0.014 | inactive: -0.122 | active: -0.687 | inactive: -0.053 | inactive: -0.044 | inactive: -0.045 | inactive: -0.032 | inactive: -0.022 | inactive: -0.161 | inactive: 0.017 | inactive: 0.04
RUBCN (UniProt Q92622) | inactive: 0.069 | inactive: 0.091 | inactive: 0.102 | inactive: 0.235 | inactive: -0.14 | inactive: 0.014 | inactive: 0.01 | inactive: 0.063 | inactive: -0.026 | inactive: -0.022 | inactive: -0.133 | inactive: 0.08 | inactive: 0.072 | inactive: 0.021 | inactive: 0.067 | inactive: -0.099 | inactive: 0.054 | inactive: 0.015 | inactive: 0 | inactive: -0.023
RUVBL2 (UniProt Q9Y230) | inactive: 0.018 | inactive: 0.009 | inactive: -0.018 | inactive: 0.002 | inactive: 0.001 | inactive: -0.002 | inactive: 0.004 | inactive: 0.017 | inactive: -0.021 | inactive: -0.007 | inactive: 0.003 | inactive: 0.03 | inactive: -0.005 | inactive: -0.028 | inactive: -0.027 | inactive: -0.006 | inactive: -0.014 | inactive: -0.002 | inactive: 0.014 | inactive: -0.009
RPP25 (UniProt Q9BUL9) | inactive: -0.077 | inactive: -0.057 | inactive: 0.165 | inactive: 0.085 | inactive: 0.028 | inactive: 0.035 | inactive: -0.036 | inactive: 0.035 | inactive: 0.004 | inactive: -0.025 | inactive: 0.015 | inactive: 0.039 | inactive: 0.021 | inactive: 0.073 | inactive: 0.07 | inactive: -0.032 | inactive: -0.24 | inactive: -0.181 | inactive: -0.022 | inactive: 0.067
RPL8 (UniProt P62917) | inactive: -0.055 | inactive: 0.013 | inactive: -0.042 | inactive: -0.09 | inactive: -0.012 | inactive: 0.021 | inactive: 0.208 | inactive: -0.014 | inactive: -0.009 | inactive: -0.038 | inactive: 0.007 | inactive: 0.023 | inactive: 0.02 | inactive: 0.038 | inactive: 0.104 | inactive: 0.022 | inactive: -0.046 | inactive: 0.018 | inactive: -0.008 | inactive: 0.011
RPL38 (UniProt P63173) | inactive: 0.006 | inactive: -0.019 | inactive: -0.034 | inactive: 0.029 | inactive: 0.027 | inactive: 0.003 | inactive: 0.006 | inactive: -0.074 | inactive: -0.01 | inactive: 0.04 | inactive: 0.008 | inactive: 0.016 | inactive: -0.029 | inactive: -0.011 | inactive: 0.037 | inactive: -0.013 | inactive: 0.044 | inactive: 0.045 | inactive: 0.002 | inactive: 0.02
RTN4 isoform 2 (UniProt Q9NQC3) | inactive: 0.134 | inactive: 0 | inactive: -0.069 | inactive: 0.118 | inactive: 0.052 | inactive: 0.006 | inactive: -0.069 | inactive: 0.048 | inactive: 0.035 | inactive: 0.021 | inactive: 0.008 | inactive: 0.088 | inactive: -0.101 | inactive: 0.029 | inactive: 0.094 | inactive: 0.16 | inactive: -0.097 | inactive: -0.003 | inactive: -0.001 | inactive: 0.004
RPSA (UniProt P08865) | inactive: 0.008 | inactive: -0.012 | inactive: -0.006 | inactive: -0.013 | inactive: -0.035 | inactive: -0.01 | inactive: -0.088 | inactive: 0.02 | inactive: 0 | inactive: 0 | inactive: 0.005 | inactive: 0.038 | inactive: -0.025 | inactive: -0.037 | inactive: -0.018 | inactive: -0.026 | inactive: 0.058 | inactive: 0.019 | inactive: -0.003 | inactive: -0.001
RPS4X (UniProt P62701) | inactive: 0.001 | inactive: -0.014 | inactive: -0.033 | inactive: 0.001 | inactive: -0.007 | inactive: -0.025 | active: 0.242 | inactive: -0.059 | inactive: -0.016 | inactive: -0.009 | inactive: 0.039 | inactive: 0.032 | inactive: -0.03 | inactive: -0.027 | inactive: 0.029 | inactive: -0.036 | inactive: 0.063 | inactive: 0.004 | inactive: 0.002 | inactive: -0.028
RSPRY1 (UniProt Q96DX4) | inactive: 0.007 | inactive: 0.03 | inactive: -0.022 | inactive: -0.031 | inactive: -0.001 | inactive: -0.002 | inactive: -0.077 | inactive: 0.079 | inactive: 0 | inactive: 0.016 | inactive: -0.052 | inactive: 0.031 | inactive: -0.044 | inactive: -0.012 | inactive: 0.02 | inactive: -0.013 | inactive: -0.06 | inactive: -0.073 | inactive: 0.002 | inactive: 0.011
RTRAF (UniProt Q9Y224) | inactive: -0.032 | inactive: -0.012 | inactive: 0.05 | inactive: -0.05 | inactive: -0.015 | inactive: 0.036 | inactive: 0.019 | inactive: 0.02 | inactive: -0.017 | inactive: 0.018 | inactive: -0.005 | inactive: -0.061 | inactive: -0.006 | inactive: -0.004 | inactive: -0.032 | inactive: -0.01 | inactive: -0.033 | inactive: 0.033 | inactive: 0.006 | inactive: -0.002

Just log2 fold change (gefitinib) and log2 fold change (Tubastatin A) (2 entries from above):
Target	log2 fold change (gefitinib)	log2 fold change (Tubastatin A)
RPP25 (UniProt Q9BUL9)	inactive: 0.067	inactive: 0.039
RPS4X (UniProt P62701)	inactive: -0.028	inactive: 0.032
